Experimental data from publication PMC10892618.
These are yes or no findings as the source states them, for the method shown. In cells and extracts the contact can be indirect. Some entries that bind do so weakly or less than the wild type. For part of these data: Sequences can lack the tags named with a protein. One block for each binder: values may come before it.

Chains of the proteins cited; added tags and fusions are not shown.
UniProt P16403: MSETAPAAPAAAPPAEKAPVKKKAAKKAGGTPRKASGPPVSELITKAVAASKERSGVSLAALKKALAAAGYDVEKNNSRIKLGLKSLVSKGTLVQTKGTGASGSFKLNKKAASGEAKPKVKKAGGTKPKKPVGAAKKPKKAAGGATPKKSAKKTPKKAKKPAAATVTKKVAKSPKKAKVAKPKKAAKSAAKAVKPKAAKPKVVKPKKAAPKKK

Columns and labels:
Myc-tagged histone H1.2 [1] = biological target: Myc-tagged histone H1.2 (UniProt P16403); assay: co-IP; HEK293T co-transfected with pCMV-Myc-H1.2 and a pCMV-Flag plasmid for 36 h; RIPA lysate; H1.2 as the precipitated protein; Protein G Agarose; western blotting
Myc-tagged histone H1.2 [2] = biological target: Myc-tagged histone H1.2 (UniProt P16403); assay: co-IP
[3] = biological target: endogenous histone H1.2 (human (endogenous in HEK293T)) (UniProt P16403); assay: co-IP

- binding (Myc-tagged histone H1.2 [1]): binds
B1: Flag-tagged MDA5 (protein, UniProt Q9BYX4 1-1025)
chain: MSNGYSTDENFRYLISCFRARVKMYIQVEPVLDYLTFLPAEVKEQIQRTVATSGNMQAVELLLSTLEKGVWHLGWTREFVEALRRTGSPLAARYMNPELTDLPSPSFENAHDEYLQLLNLLQPTLVDKLLVRDVLDKCMEEELLTIEDRNRIAAAENNGNESGVRELLKRIVQKENWFSAFLNVLRQTGNNELVQELTGSDCSESNAEIENLSQVDGPQVEEQLLSTTVQPNLEKEVWGMENNSSESSFADSSVVSESDTSLAEGSVSCLDESLGHNSNMGSDSGTMGSDSDEENVAARASPEPELQLRPYQMEVAQPALEGKNIIICLPTGSGKTRVAVYIAKDHLDKKKKASEPGKVIVLVNKVLLVEQLFRKEFQPFLKKWYRVIGLSGDTQLKISFPEVVKSCDIIISTAQILENSLLNLENGEDAGVQLSDFSLIIIDECHHTNKEAVYNNIMRHYLMQKLKNNRLKKENKPVIPLPQILGLTASPGVGGATKQAKAEEHILKLCANLDAFTIKTVKENLDQLKNQIQEPCKKFAIADATREDPFKEKLLEIMTRIQTYCQMSPMSDFGTQPYEQWAIQMEKKAAKEGNRKERVCAEHLRKYNEALQINDTIRMIDAYTHLETFYNEEKDKKFAVIEDDSDEGGDDEYCDGDEDEDDLKKPLKLDETDRFLMTLFFENNKMLKRLAENPEYENEKLTKLRNTIMEQYTRTEESARGIIFTKTRQSAYALSQWITENEKFAEVGVKAHHLIGAGHSSEFKPMTQNEQKEVISKFRTGKINLLIATTVAEEGLDIKECNIVIRYGLVTNEIAMVQARGRARADESTYVLVAHSGSGVIEHETVNDFREKMMYKAIHCVQNMKPEEYAHKILELQMQSIMEKKMKTKRNIAKHYKNNPSLITFLCKNCSVLACSGEDIHVIEKMHHVNMTPEFKELYIVRENKALQKKCADYQINGEIICKCGQAWGTMMVHKGLDLPCLKIRNFVVVFKNNSTKKQYKKWVELPITFPNLDYSECCLFSDED

- binding (Myc-tagged histone H1.2 [2]): binds
- binding [3]: binds
B2: endogenous MDA5 (protein, UniProt Q9BYX4 1-1025)
chain: B1 chain

- binding (Myc-tagged histone H1.2 [1]): no binding
B3: Flag-tagged TBK1 (protein, UniProt Q9UHD2 1-729)
chain: MQSTSNHLWLLSDILGQGATANVFRGRHKKTGDLFAIKVFNNISFLRPVDVQMREFEVLKKLNHKNIVKLFAIEEETTTRHKVLIMEFCPCGSLYTVLEEPSNAYGLPESEFLIVLRDVVGGMNHLRENGIVHRDIKPGNIMRVIGEDGQSVYKLTDFGAARELEDDEQFVSLYGTEEYLHPDMYERAVLRKDHQKKYGATVDLWSIGVTFYHAATGSLPFRPFEGPRRNKEVMYKIITGKPSGAISGVQKAENGPIDWSGDMPVSCSLSRGLQVLLTPVLANILEADQEKCWGFDQFFAETSDILHRMVIHVFSLQQMTAHKIYIHSYNTATIFHELVYKQTKIISSNQELIYEGRRLVLEPGRLAQHFPKTTEENPIFVVSREPLNTIGLIYEKISLPKVHPRYDLDGDASMAKAITGVVCYACRIASTLLLYQELMRKGIRWLIELIKDDYNETVHKKTEVVITLDFCIRNIEKTVKVYEKLMKINLEAAELGEISDIHTKLLRLSSSQGTIETSLQDIDSRLSPGGSLADAWAHQEGTHPKDRNVEKLQVLLNCMTEIYYQFKKDKAERRLAYNEEQIHKFDKQKLYYHATKAMTHFTDECVKKYEAFLNKSEEWIRKMLHLRKQLLSLTNQCFDIEEEVSKYQEYTNELQETLPQKMFTASSGIKHTMTPIYPSSNTLVEMTLGMKKLKEEMEGVVKELAENNHILERFGSLTMDGGLRNVDCL

- binding (Myc-tagged histone H1.2 [2]): binds
- binding [3]: binds
B4: endogenous IRF3 (protein, UniProt Q14653 1-427)
chain: MGTPKPRILPWLVSQLDLGQLEGVAWVNKSRTRFRIPWKHGLRQDAQQEDFGIFQAWAEATGAYVPGRDKPDLPTWKRNFRSALNRKEGLRLAEDRSKDPHDPHKIYEFVNSGVGDFSQPDTSPDTNGGGSTSDTQEDILDELLGNMVLAPLPDPGPPSLAVAPEPCPQPLRSPSLDNPTPFPNLGPSENPLKRLLVPGEEWEFEVTAFYRGRQVFQQTISCPEGLRLVGSEVGDRTLPGWPVTLPDPGMSLTDRGVMSYVRHVLSCLGGGLALWRAGQWLWAQRLGHCHTYWAVSEELLPNSGHGPDGEVPKDKEGGVFDLGPFIVDLITFTEGSGRSPRYALWFCVGESWPQDQPWTKRLVMVKVVPTCLRALVEMARVGGASSLENTVDLHISNSHPLSLTSDQYKAYLQDLVEGMDFQGPGES
